Source: doi:10.1101/2025.08.22.671773
These are yes or no findings as the source states them, for the method shown. In cells and extracts the contact can be indirect. Some results given as binding are weak or reduced against the parent protein; the word gives no strength.

Protein sequences, listed by entry. Tags and fused reporters are not part of them. Residues count along the entry.
UniProt P32004, residues 20-1257: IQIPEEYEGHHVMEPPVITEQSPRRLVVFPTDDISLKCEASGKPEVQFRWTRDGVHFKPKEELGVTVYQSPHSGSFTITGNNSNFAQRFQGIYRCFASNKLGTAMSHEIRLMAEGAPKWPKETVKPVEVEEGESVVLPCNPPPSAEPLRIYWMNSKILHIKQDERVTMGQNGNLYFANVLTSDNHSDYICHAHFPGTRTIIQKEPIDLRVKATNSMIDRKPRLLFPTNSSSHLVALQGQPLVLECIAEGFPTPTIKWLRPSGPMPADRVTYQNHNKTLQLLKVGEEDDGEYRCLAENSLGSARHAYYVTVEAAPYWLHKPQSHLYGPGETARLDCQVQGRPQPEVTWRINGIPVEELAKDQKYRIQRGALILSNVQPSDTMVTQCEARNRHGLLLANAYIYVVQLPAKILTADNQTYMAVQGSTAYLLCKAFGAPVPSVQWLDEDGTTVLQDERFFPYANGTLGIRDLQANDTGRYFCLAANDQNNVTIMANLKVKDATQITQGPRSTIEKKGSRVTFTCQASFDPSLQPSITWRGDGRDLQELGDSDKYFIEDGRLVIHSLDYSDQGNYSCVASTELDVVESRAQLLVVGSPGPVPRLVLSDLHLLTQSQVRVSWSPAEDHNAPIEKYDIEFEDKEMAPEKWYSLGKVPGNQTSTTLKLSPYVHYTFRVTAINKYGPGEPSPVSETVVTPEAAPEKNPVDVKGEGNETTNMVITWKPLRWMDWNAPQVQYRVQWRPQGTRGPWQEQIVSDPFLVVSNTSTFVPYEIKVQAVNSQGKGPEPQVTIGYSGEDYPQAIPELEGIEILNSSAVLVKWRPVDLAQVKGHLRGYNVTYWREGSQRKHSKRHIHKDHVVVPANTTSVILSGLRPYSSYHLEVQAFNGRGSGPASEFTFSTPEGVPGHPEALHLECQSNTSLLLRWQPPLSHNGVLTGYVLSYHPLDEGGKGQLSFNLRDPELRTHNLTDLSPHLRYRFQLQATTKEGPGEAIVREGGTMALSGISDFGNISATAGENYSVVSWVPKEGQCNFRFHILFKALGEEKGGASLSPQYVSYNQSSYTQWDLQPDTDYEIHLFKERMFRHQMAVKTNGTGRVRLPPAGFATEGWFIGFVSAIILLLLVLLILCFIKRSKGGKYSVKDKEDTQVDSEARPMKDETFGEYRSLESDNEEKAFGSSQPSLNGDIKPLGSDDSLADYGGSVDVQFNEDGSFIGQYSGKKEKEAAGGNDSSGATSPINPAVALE
UniProt O14646: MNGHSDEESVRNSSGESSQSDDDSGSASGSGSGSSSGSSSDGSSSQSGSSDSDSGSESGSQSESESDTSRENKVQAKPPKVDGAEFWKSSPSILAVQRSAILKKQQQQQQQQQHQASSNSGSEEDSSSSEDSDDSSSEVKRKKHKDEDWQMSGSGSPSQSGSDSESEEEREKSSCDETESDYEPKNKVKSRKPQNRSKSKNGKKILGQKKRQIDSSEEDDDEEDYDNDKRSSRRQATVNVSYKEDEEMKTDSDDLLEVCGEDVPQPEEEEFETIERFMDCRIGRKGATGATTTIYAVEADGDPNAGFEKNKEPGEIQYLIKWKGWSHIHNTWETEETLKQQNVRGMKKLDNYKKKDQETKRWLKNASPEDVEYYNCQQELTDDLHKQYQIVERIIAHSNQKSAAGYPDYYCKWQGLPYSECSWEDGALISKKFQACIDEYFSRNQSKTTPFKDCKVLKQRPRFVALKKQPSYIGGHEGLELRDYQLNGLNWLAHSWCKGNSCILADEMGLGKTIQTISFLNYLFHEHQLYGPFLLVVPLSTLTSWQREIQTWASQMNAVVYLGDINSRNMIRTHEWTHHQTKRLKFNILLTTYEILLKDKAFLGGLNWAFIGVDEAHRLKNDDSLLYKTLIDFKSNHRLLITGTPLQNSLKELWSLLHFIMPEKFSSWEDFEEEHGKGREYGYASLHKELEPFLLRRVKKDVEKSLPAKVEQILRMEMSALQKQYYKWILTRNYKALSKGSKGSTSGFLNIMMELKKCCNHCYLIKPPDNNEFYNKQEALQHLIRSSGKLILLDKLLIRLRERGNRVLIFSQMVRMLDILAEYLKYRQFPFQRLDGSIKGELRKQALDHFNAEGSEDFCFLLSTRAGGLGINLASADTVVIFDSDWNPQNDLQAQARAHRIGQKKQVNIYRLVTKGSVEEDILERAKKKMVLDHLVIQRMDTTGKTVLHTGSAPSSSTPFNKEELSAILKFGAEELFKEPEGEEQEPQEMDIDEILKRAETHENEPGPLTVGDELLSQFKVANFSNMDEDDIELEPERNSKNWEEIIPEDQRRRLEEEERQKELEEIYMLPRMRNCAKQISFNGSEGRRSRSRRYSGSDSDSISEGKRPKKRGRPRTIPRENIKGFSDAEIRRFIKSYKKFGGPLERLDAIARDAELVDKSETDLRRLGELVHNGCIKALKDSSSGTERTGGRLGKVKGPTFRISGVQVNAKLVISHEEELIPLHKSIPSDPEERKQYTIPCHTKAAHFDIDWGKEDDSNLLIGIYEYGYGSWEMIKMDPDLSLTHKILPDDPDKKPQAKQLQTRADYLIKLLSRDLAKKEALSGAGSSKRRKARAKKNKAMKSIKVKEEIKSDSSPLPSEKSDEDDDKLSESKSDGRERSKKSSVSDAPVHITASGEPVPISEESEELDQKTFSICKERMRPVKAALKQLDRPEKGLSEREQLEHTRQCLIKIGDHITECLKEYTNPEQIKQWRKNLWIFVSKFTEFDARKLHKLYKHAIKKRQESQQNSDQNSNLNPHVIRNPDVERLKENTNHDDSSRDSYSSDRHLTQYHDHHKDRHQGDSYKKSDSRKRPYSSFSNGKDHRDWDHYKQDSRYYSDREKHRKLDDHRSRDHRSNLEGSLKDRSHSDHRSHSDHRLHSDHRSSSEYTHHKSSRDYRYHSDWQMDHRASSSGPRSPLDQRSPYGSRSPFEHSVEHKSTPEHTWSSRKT
UniProt Q9NYQ6, residues 21-3014: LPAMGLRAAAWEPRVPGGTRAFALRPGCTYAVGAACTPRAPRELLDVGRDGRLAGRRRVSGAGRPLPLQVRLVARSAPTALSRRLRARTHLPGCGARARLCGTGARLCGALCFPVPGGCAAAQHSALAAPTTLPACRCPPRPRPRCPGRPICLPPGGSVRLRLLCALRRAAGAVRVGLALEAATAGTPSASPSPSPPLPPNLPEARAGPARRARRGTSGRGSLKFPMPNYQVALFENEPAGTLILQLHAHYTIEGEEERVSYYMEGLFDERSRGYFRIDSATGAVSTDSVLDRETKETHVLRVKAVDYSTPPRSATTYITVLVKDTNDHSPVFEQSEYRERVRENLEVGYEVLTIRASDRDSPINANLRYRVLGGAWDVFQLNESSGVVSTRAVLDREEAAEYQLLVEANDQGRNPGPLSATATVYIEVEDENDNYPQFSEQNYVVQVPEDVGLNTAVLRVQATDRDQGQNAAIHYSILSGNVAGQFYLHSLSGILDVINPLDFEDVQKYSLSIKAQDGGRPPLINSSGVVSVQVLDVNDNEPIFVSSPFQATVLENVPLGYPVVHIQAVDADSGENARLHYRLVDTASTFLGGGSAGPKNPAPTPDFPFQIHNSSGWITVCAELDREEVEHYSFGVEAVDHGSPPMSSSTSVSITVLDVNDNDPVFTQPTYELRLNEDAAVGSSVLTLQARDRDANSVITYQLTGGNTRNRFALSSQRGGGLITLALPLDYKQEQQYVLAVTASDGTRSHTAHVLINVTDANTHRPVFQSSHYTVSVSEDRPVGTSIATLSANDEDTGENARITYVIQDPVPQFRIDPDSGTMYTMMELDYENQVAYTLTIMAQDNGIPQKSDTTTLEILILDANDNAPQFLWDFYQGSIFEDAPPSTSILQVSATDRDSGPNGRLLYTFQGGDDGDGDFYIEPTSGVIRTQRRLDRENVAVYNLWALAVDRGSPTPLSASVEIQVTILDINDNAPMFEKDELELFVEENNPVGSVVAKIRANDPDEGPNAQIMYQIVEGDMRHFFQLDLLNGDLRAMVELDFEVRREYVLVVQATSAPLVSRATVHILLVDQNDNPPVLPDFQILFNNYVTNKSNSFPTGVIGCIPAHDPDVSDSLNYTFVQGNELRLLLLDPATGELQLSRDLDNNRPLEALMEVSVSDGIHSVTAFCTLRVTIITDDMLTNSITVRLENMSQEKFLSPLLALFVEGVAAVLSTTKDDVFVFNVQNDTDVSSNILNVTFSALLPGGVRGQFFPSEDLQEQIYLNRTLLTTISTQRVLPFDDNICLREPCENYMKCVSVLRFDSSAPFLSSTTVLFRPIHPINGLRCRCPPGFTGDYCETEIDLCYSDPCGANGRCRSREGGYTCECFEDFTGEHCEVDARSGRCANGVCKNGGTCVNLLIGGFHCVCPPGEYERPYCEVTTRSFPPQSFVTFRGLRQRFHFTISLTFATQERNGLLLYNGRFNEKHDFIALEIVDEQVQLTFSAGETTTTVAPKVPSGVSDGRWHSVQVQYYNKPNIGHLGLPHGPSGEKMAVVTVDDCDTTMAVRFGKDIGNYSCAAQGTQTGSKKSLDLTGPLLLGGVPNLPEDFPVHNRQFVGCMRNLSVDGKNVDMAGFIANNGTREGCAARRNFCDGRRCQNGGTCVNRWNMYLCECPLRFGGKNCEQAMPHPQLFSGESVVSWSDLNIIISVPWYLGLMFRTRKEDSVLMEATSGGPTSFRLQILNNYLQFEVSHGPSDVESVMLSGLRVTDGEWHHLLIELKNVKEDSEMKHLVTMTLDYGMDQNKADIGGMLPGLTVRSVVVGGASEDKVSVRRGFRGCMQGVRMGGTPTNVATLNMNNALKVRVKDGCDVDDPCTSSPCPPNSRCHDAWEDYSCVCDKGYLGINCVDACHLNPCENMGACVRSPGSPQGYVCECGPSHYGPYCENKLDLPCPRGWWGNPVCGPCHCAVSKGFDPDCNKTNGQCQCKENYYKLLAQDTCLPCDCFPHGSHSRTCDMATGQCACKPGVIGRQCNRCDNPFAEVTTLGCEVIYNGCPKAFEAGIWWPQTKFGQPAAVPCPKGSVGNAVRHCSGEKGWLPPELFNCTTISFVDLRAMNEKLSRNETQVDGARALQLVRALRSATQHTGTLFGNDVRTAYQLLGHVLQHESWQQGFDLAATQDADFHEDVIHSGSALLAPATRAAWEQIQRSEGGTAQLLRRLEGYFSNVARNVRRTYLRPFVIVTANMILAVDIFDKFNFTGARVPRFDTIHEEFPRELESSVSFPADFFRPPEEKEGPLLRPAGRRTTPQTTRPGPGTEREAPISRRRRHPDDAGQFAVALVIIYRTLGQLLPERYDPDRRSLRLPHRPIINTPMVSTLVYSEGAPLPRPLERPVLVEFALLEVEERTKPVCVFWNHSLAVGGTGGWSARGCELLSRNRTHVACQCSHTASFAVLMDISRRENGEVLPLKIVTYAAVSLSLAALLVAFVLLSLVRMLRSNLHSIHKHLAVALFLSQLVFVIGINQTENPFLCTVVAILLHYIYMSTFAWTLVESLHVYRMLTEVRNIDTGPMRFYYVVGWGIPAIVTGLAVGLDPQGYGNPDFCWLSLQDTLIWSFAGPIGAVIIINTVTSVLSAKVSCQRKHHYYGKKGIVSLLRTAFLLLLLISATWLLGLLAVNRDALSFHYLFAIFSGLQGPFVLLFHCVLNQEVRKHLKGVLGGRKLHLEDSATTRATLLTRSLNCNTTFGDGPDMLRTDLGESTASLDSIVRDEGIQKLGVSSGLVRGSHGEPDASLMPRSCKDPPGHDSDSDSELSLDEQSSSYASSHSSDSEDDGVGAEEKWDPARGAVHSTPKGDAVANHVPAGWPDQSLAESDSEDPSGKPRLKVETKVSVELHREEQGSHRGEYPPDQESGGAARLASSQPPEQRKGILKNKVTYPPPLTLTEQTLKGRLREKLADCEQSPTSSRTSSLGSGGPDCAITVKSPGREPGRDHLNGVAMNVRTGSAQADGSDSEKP
UniProt P05412: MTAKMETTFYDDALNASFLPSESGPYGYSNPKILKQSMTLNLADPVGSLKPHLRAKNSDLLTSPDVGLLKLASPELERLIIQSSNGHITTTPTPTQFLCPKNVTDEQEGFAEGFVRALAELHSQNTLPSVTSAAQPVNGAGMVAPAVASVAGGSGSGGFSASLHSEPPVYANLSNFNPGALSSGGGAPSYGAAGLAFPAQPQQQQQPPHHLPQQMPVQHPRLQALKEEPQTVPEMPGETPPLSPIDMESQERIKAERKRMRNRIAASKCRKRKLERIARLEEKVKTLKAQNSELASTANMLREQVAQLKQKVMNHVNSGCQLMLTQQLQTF

What was measured:
[1] = molecular target: L1 cell adhesion molecule (L1CAM) (human (endogenous in H23)) (UniProt P32004); assay: co-IP
[2] = molecular target: L1 cell adhesion molecule (L1CAM) (human (endogenous in H23)) (UniProt P32004); assay: proximity ligation
[3] = molecular target: CHD1 (chromodomain helicase DNA-binding protein 1) (human (endogenous in H23)) (UniProt O14646); assay: proximity ligation

binding [1] | binding [2] | binding [3] | Substance
binds | binds |  | CELSR1 (cadherin EGF LAG seven-pass G-type receptor 1) (from UniProt Q9NYQ6 21-3014)
 |  | binds | c-Jun (from UniProt P05412 1-331)
